The other results are listed elsewhere or left out. Cut-off read from the data, not from the text of the source: active = 150% or more and inactive = the rest. Single values are uncertain, as repeats are few or missing.
Test system: Staphylococcus aureus JE2-lux inside RAW 264.7 macrophages
Assay: intracellular bacterial bioluminescence relative to DMSO vehicle; higher = higher intracellular bacterial metabolic activity
Details: 10 µM; treatment time 4 h; gentamicin 50 µg/ml

Intracellular bacterial bioluminescence, inactive:
Cc1nc(OCC(=O)Nc2cc(F)ccc2F)c2c(C)c(C)oc2n1 71%
Cc1cccn2c(=O)nc(SCc3c(F)cccc3Cl)nc12 80.3%
CCOC(=O)c1nc(NC(C)c2ccccc2)c2c(-c3ccc(F)cc3)noc2n1 (stereo unspecified) 55.2%
NC(=O)c1nc(Nc2ccccc2)sc1NC(=O)Cc1cccs1 81.9%
CC(=O)N1CCCN(C(=O)c2ncoc2-c2ccc(F)cc2)CC1 93.5%
Cc1nc(N2CCC(C(=O)NCCc3ccc(Cl)cc3)CC2)c2c(C)c(C)oc2n1 35.3%
Cc1cccc(C2CCCN2C(=O)c2cnn3cc(Br)cnc23)c1 (stereo unspecified) 105%
COC(=O)c1ccc(C(=O)Nc2ccc(N3CCC(C)CC3)c(C(N)=O)c2)s1 89.1%
S=C(NCc1ccccc1)N1CCCC(c2nc3ccccc3[nH]2)C1 (stereo unspecified) 114%
COc1ccc(OC)c(S(=O)(=O)NC(=N)NCCc2ccccc2OC)c1 77%
O=C1c2ccccc2C(=O)N1CNc1ccccc1Cl 93.8%
COC(=O)c1ccccc1NC(=O)CSc1nc(N)cc(=O)[nH]1 90.3%
Cc1cc(-c2csc(S(=O)(=O)N3CCC(Cc4ccccc4)CC3)c2)on1 64.5%
Cc1nc2cccc(NC(=O)COc3ncnc4ccccc34)c2[nH]1 19%
CN(Cc1ccccc1)C(=O)CCn1cnc2c(-c3ccc(F)cc3)noc2c1=O 66.3%
S=C(Nc1ccccc1)N1CCC(n2cnc3ccccc32)CC1 124%
CCn1c(=O)c(N2CCN(C(=O)COc3ccc(F)cc3)CC2)c(C)n(-c2ccccc2)c1=O 133%
N#Cc1c(NC(=O)CCSCCC(=O)Nc2sc3c(c2C#N)CCC3)sc2c1CCC2 125%
O=C(NCc1cccc(F)c1)c1cnn2c(=O)c3c([nH]c12)CCCC3 107%
O=C(NCc1ccc(F)cc1)C(=O)c1c[nH]c2ccccc12 62.5%
CCOC(=O)c1sc2nc(NC(=O)c3nc4ccccc4s3)sc2c1C 90.8%
CCc1nc2ccc(C(=O)NCc3n[nH]c4c3CCCC4)cc2nc1CC 66.6%
COc1ccc(C(=O)C2CCN(CC(=O)Nc3ccc4c(c3)OCCO4)CC2)cc1 111%
CCSc1nc2c(c(=O)[nH]1)C(c1cccc(Br)c1)C(C(=O)OC(C)C)=C(C)N2 (stereo unspecified) 89.3%
Cc1nc(C#N)c(N/N=C/C=C/c2ccccc2)o1 76.2%
CCn1c(N2CCN(CC(=O)Nc3c(C)cccc3C)CC2)nc2ccccc21 145%

Molecules listed so far containing an aryl thioether with sulfur outside any ring:
Intracellular bacterial bioluminescence, inactive:
Cc1cccn2c(=O)nc(SCc3c(F)cccc3Cl)nc12 80.3%
COC(=O)c1ccccc1NC(=O)CSc1nc(N)cc(=O)[nH]1 90.3%
CCSc1nc2c(c(=O)[nH]1)C(c1cccc(Br)c1)C(C(=O)OC(C)C)=C(C)N2 (stereo unspecified) 89.3%

Reference: the supplement of paper PMC12578635
